Test results published in PubChem BioAssay AID2685 (National Center for Advancing Translational Sciences (NCATS), 2010).
This is one part of the list. Further columns of the screen follow, without active or inactive calls. The list favours compounds with an active or inconclusive main result. Potencies come from curve fits of mixed quality, noted in brackets.

Experiment: qHTS Assay for Lipid Storage Modulators in Drosophila S3 Cells;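 on cell number change: cells counted by Cell Tracker Red CMTPX staining in the red channel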
Conditions: BODIPY lipid droplet fluorescence, 18-24 h; for cell number change: measured here: cell count max response, cells fed with added oleic acid
Summary of the method: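 Drosophila S3 cells got compounds at several concentrations plus oleic acid (400 uM solution). Laser-scanning cytometry with 488 nm excitation read lipid droplets at 500-530 nm and cells at 575-640 nm. Percent activity was relative to 20 uM Triacsin C.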

[1] = measured here: lipid fluorescence (Fed channel) AC50, cells fed with added oleic acid
[2] = measured here: cell number channel AC50, cells fed with added oleic acid

Row | SMILES | cell number change [%] | AC50 [1] | AC50 [2]
1 | COc1cc(OC)cc(C(=O)Nc2ccc3c(c2)COC3=O)c1 | -3.44 | 0.651 µM [falling, single point] | 
2 | COc1cc2c(cc1NC(=O)Cn1cnc3c1c(=O)n(C)c(=O)n3C)oc1ccccc12 | 17.2 | 1.46 µM [rising, full curve] | 
3 | CCOc1ccccc1/C=N/NC(=O)CNC(=O)c1ccc(S(=O)(=O)N2CCOCC2)cc1 | 15 |  | 1.64 µM [falling, single point]
4 | COc1ccc2c(c1)[nH]c1c(Cl)ncnc12 | -12 | 0.461 µM [falling, partial curve, poor fit] | 
5 | CCCOc1ccc(OCCOCCNCc2ccccc2)cc1 | 19 | 16.4 µM [rising, single point] | 
6 | Cn1c(=O)c2sccc2n2c(CCCC(=O)NCc3ccc(F)cc3)nnc12 | 4.76 | 29.1 µM [falling, single point] | 
7 | CCCS(=O)(=O)N1CCC(C(=O)NCCCN2CCCC2=O)CC1 | -4.61 |  | 
8 | COC(=O)[C@H](CC(C)C)NC(=O)N1CCCCC1 | -10.5 | 29.1 µM [falling, single point] | 
9 | COc1ccc(NC(=O)CN2CCOCC2)cc1S(=O)(=O)N1CCCCC1 | 9.56 | 1.16 µM [rising, full curve] | 
10 | Clc1cccc(C2=NOC(c3nnc(-c4ccccc4)o3)C2)c1 (stereo unspecified) | 32.7 | 20.6 µM [rising, partial curve, poor fit] | 0.0651 µM [rising, full curve, poor fit]
11 | Cc1nn(C)cc1/C=N/NC(=O)Cn1cncn1 | -20.6 |  | 
12 | O=C(NCc1ccc2c(c1)OCO2)C(=O)Nc1cc2c3c(c1)CC(=O)N3CCC2 | 43.8 |  | 5.8 µM [rising, partial curve]
13 | O=C(CC1(O)C(=O)N(Cc2ccccc2)c2ccccc21)c1ccc2c(c1)OCO2 (stereo unspecified) | 126 |  | 2.06 µM [rising, partial curve]
14 | CN(CCCNC(=O)CN1C(=O)CC(C)(C)S(=O)(=O)c2ccccc21)C1CCCCC1 | 33.1 | 6.51 µM [rising, single point] | 32.6 µM [rising, single point]
15 | O=c1[nH]c(-c2cccs2)nc2ccccc12 | -15.4 | 0.366 µM [falling, full curve, poor fit] | 0.116 µM [falling, full curve]
16 | CCC(C)(C)C(=O)Nc1cccc(Cl)c1C | 34.6 |  | 
17 | COc1cccc(NC(=O)CCN2CCN(c3ccccc3F)CC2)c1 | 53.3 | 6.51 µM [rising, single point] | 11.6 µM [rising, partial curve]
18 | Cc1nc2ccccc2c(=O)n1/N=C/c1c(O)ccc2oc3c(c12)CCCC3 | 12.4 | 0.0206 µM [rising, full curve, poor fit] | 
19 | Cc1nc(C)c(-c2csc(Nc3ccc(C(=O)O)c(O)c3)n2)s1 | -25.5 | 6.51 µM [rising, single point] | 

Single records, from the list above.
Cc1nc2ccccc2c(=O)n1/N=C/c1c(O)ccc2oc3c(c12)CCCC3 as listed: cell number change [%]: 12.4; AC50 [1]: 0.0206 µM [rising, full curve, poor fit]
COc1ccc2c(c1)[nH]c1c(Cl)ncnc12 as listed: cell number change [%]: -12; AC50 [1]: 0.461 µM [falling, partial curve, poor fit]

(cont.)

Row | SMILES | cell number change [%] | AC50 [1] | AC50 [2]
20 | COc1cccc(-c2ncc3ccccc3c2CO)c1 | -57.9 | 10.3 µM [falling, single point] | 9.2 µM [falling, single point]
21 | COc1ccccc1N(C(=O)CNC(=O)c1ccco1)C(C(=O)NC1CCCC1)c1ccco1 (stereo unspecified) | 9.58 | 1.46 µM [rising, partial curve] | 
22 | CCOC1(OCC)N=C(N)C2(C#N)C(c3cccc(OC)c3OC)C12C#N (stereo unspecified) | -25.3 | 29.1 µM [falling, single point] | 
23 | COCCN1C(=O)C(=O)/C(=C(/O)c2ccc(OC(C)C)cc2)C1c1cccnc1 (stereo unspecified) | -95.8 | 20.6 µM [falling, partial curve] | 29.1 µM [falling, partial curve]
24 | O=c1c2c3nc4ccccc4nc3n(-c3ccc4c(c3)OCCO4)c2ncn1CC1CCCO1 (stereo unspecified) | 0.628 |  | 
25 | CC(=O)N1N=C2/C(=C/c3ccccc3)CCCC2C1c1ccccc1 (stereo unspecified) | 6.06 |  | 6.51 µM [rising, single point]
26 | CC1Cc2nc(SCC(=O)NCc3ccco3)n(Cc3ccccc3)c(=O)c2S1 (stereo unspecified) | 3.09 | 18.4 µM [rising, single point] | 
27 | CN1CCC(=NNC(=O)CN(c2ccccc2)S(=O)(=O)c2ccccc2)CC1 | 12 |  | 6.51 µM [rising, single point]
28 | COCCCNC(=O)CC(NS(=O)(=O)c1ccc(C)cc1)c1ccc(OC)cc1 (stereo unspecified) | 1.71 | 20.6 µM [falling, partial curve] | 
29 | Cc1ccc(C(C(=O)NC(C)(C)C)N(CC2CCCO2)C(=O)c2csnn2)cc1 (stereo unspecified) | -9.21 |  | 
30 | Clc1ccc(C2=Nn3c(nnc3-c3cc(-c4ccccc4)n[nH]3)SC2)cc1 | -148 | 29.1 µM [falling, single point] | 23.1 µM [falling, single point]
31 | CCOc1ccc(/C=C2\SC(=S)N(NS(=O)(=O)c3ccccc3)C2=O)cc1OC | 11.3 |  | 
32 | COc1cc2c(cc1NC(=O)c1cncc(Br)c1)oc1ccccc12 | 98.7 | 3.66 µM [rising, partial curve] | 
33 | CC(=O)NC(Cc1cc(C)ccc1C)C(=O)N1CCN(C(=O)Nc2ccc(C(C)=O)cc2)CC1 (stereo unspecified) |  | 6.51 µM [falling, single point] | 6.51 µM [falling, single point]
34 | O=C(CSc1nc2[nH]ncc2c(=O)[nH]1)Nc1ccc(OC(F)(F)F)cc1 | -39 | 25.9 µM [falling, single point] | 9.2 µM [falling, partial curve]
35 | Cc1cc(OCC(=O)Nc2cccnc2)c2c(C)cc(=O)oc2c1 | -1.47 | 6.51 µM [falling, partial curve, poor fit] | 
36 | O=C(NC(=S)N(CCO)Cc1ccccc1)c1ccc(S(=O)(=O)N2CCCC2)cc1 | -36.4 |  | 2.31 µM [falling, full curve]
37 | Cc1ccc(C)c(NC(=O)COC(=O)c2cc3ccccc3oc2=O)c1 | 1 | 0.00517 µM [falling, full curve, poor fit] | 
